Measured values from paper PMC12040169 (PLOS Biology, 2025).
Some of the results follow.

Each molecule was assayed on T1, CTL2-GFP (C. trachomatis L2/434/Bu, GFP-expressing). Details: bulk GFP, single well; 28.5 h, 10 µM; inhibitor.
T1 construct: L2/434/Bu, GFP-expressing
Parameters: species or system HeLa; Intracellular C. trachomatis growth in HeLa cells, bulk GFP fluorescence relative to DMSO

SMILES	% of control remaining
COc1cccc(Nc2cc(-c3ccco3)ncn2)c1OC [CBK090727]	155.601%
COc1cc(/C=C/c2[nH]c(=O)[nH]c(=O)c2[N+](=O)[O-])cc(Br)c1OCC(=O)O [CBK267977]	106.574%
Cc1ccsc1C(=O)N1CCC(c2n[nH]c3ncccc23)CC1 [CBK284910]	124.313%
Cn1c(C2CC2)nc2c1CCN(Cc1cn3cc(Cl)ccc3n1)C2 [CBK305314]	123.104%
NC(=O)C1(N2CCCCC2)CCN(CC(=O)Nc2ccc(Oc3ccccc3)cc2)CC1 [CBK265774]	118.045%
CCCOc1ccc(S(=O)(=O)NCc2ccc3c(c2)OCO3)c2ccccc12 [CBK269059]	104.439%
COc1ccc(OC)c(NC(=O)CNC(=O)c2ccccc2F)c1 [CBK267846]	132.732%
CCC1C=CCN1S(=O)(=O)c1cccc(C(=O)NCc2cnn(C)c2)c1 (centres unmarked) [CBK307536]	128.836%
O=C(NCCn1c(=O)oc2ccccc21)C(c1cccs1)c1cccs1 [CBK286198]	128.893%
COc1cc(NC(=O)N2CCN(CCc3ccccc3)CC2)cc(OC)c1OC [CBK158933]	198.05%
O=C(O)C1CC(C(=O)O)C(C(=O)O)CC1C(=O)O (centres unmarked) [CBK261332]	100%
COc1cccc2c1cc(C(=O)NCCn1ccnc1C)n2C [CBK283267]	104.326%
CSc1nccc(N2CCC(NCCn3c(C)cc(C)nc3=O)CC2)n1 [CBK307070]	98.4704%
CC(=O)Nc1cccc(-n2nnnc2SCCCc2nc3ccccc3o2)c1 [CBK298317]	128.021%
O=C1CN(C(=O)NCc2cccc3ccccc23)CCN1 [CBK155852]	111.501%
C=CCn1c2ccccc2c2nnc(SCC(=O)OCN3C(=O)c4ccccc4C3=O)nc21 [CBK263231]	105.901%
COc1ccc(C(=O)C2=C(O)C(=O)N(CCCN(C)C)C2c2ccc(Cl)c(Cl)c2)c(C)c1 (centres unmarked) [CBK264896]	100%
Cc1ccc(OCCOc2cccc(/C=N/n3cnnc3)c2)cc1 [CBK263028]	95.7929%
O=C(NC1CCCCC1)[C@@H]1C=CCN1C(=O)c1cccs1 [CBK284338]	78.2001%
O=C1CC(N2CCN(c3ccccc3)CC2)C(=O)N1c1cccc2ccccc12 (centres unmarked) [CBK261263]	100%
CS(=O)(=O)c1ccc(CNc2nccnc2-c2ccccc2F)cc1 [CBK036836]	189.714%
CN(C)S(=O)(=O)N(CC(=O)Nc1cccc([N+](=O)[O-])c1)c1ccccc1 [CBK265904]	130.718%
COC(=O)c1cn(C(=O)COc2ccc(Cl)cc2)c2ccccc12 [CBK262598]	100%
Cc1cnc2c(Cl)c(C(=O)N3CCN(C)C4(CCNCC4)C3)nn2c1 [CBK306513]	159.782%
CCOC(=O)C1CSCCN1C(=O)c1cc(C)n(-c2nccs2)c1C (centres unmarked) [CBK305884]	115.842%

Part of the list above in order of molecular weight, descending:
SMILES	% of control remaining
COc1ccc(C(=O)C2=C(O)C(=O)N(CCCN(C)C)C2c2ccc(Cl)c(Cl)c2)c(C)c1 (centres unmarked) [CBK264896]	100%
COc1cc(NC(=O)N2CCN(CCc3ccccc3)CC2)cc(OC)c1OC [CBK158933]	198.05%
Cc1cnc2c(Cl)c(C(=O)N3CCN(C)C4(CCNCC4)C3)nn2c1 [CBK306513]	159.782%

Continuation.

SMILES	% of control remaining
O/N=C1\CC(c2ccccc2)Oc2ccc(Cl)cc21 (centres unmarked) [CBK288370]	82.5829%
CC(C)Nc1nccnc1OCc1ccc(F)cc1 [CBK115644]	171.527%
O=C(C1CCCC1)N1CCC(n2c(=O)oc3ccc(Cl)cc32)CC1 [CBK284344]	87.9341%
CC(=O)CCCCC(=O)N1CCC2(CC1)CC(=O)c1cc(C)c(C)cc1O2 [CBK156497]	130.027%
O=S(=O)(Nc1nnn[nH]1)c1csc2ccccc12 [CBK062590]	150.089%
Cc1ccc(S(=O)(=O)Nc2ccc(Nc3cc(-c4cc5ccccc5o4)ncn3)cc2)cc1 [CBK090976]	161.265%
CN1CC[C@H](c2nc3ncccc3[nH]2)C1 [CBK289384]	103.148%
O=C(c1cc2cc(Cl)ccc2[nH]1)N1CCN(c2ccccn2)CC1 [CBK107343]	91.8673%
Cc1ccc(NC(=S)N(CCN(C)C)Cc2cc3ccc(C)cc3[nH]c2=O)c(C)c1 [CBK135134]	123.601%
NS(=O)(=O)c1ccc(NC(=O)c2ccc3ccccc3c2)cc1 [CBK264338]	95.0913%
Cc1cc(C)c2c(c1)cc(C)c1nn(CC(=O)N(C)C)c(=O)n12 [CBK283927]	106.939%
O=C(NCCCNC(=O)c1ccc(Br)o1)c1ccccn1 [CBK269430]	118.061%
COc1ccc(-c2noc(CN(C(C)=O)C3CCCCC3)n2)cc1 [CBK270264]	84.992%
O=C(CCc1ccccc1)N1CCCC1c1n[nH]cc1-c1ccncc1 (centres unmarked) [CBK283436]	158.607%
COc1ccccc1-c1nccnc1OC [CBK106811]	92.9283%
Nc1ccc(-c2nc(NC(=O)Cc3ccccc3)cnc2-c2ccc(F)c(Cl)c2)cc1 [CBK036690]	101.084%
CN1CCN(C(=O)CNS(=O)(=O)c2cc(F)c(Br)cc2F)CC1 [CBK034481]	102.568%
CC1(C)[C@H](Cc2cc(CO)on2)C[C@@H]1NS(=O)(=O)c1ccccc1 [CBK289234]	112.982%
COc1ccccc1NC(=O)Cn1cc(C(=O)c2cccs2)c2ccccc21 [CBK268256]	109.228%
COC(=O)C1CCCCN1S(=O)(=O)c1cccc2cccnc12 (centres unmarked) [CBK051244]	121.557%
Cc1ccccc1OCC(=O)NCC1(N2CCCCC2)CCCCC1 [CBK297752]	138.192%
Cc1cc(C)c(C)c(OCC(=O)N(Cc2nc(-c3ccccc3)no2)C2CCCCC2)c1 [CBK268974]	97.7924%
O=C(CN1C(=O)c2ccccc2C1=O)Nn1cnnc1 [CBK263789]	100%
CO[C@@]12CC[C@@H](OCC(=O)O)C[C@@H]1N(Cc1ccccc1C)CC2 [CBK307548]	67.1181%
CCCC1CCN(Cc2ccn(Cc3ccc(S(C)(=O)=O)cc3)c2)CC1 [CBK144937]	141.729%
